Experimental findings from paper PMC12392863, “Natural Design of a Stabilized Cross‐β Fold: Structure of the FuA FapC from Pseudomonas Sp. UK4 Reveals a Critical Role for Stacking of Imperfect Repeats” (Advanced Materials (Deerfield Beach, Fla.), 2025) are described below.

Results are given in words; binding and its absence hold for the method and conditions named.

Holding throughout (experiment): ThT fluorescence fibrillation kinetics; self-assembly into amyloid without seeds; 15 µM FapC (wt or mutant; wt also 1-15 µM), 50 mM Tris/HCl pH 7.4, 40 µM ThT, 37 °C, no shaking, followed for 120 h; both purified
Assay [1] concerns the target FapC UK4 Asn218Ala (Pseudomonas sp. UK4) (UniProt P0DXF5).
In assay [2] the target is FapC UK4 Gly84Pro (Pseudomonas sp. UK4) (UniProt P0DXF5).
For assay [3], the target named is FapC UK4 Asn62Ala (Pseudomonas sp. UK4) (UniProt P0DXF5).

B1: FapC UK4 Asn218Ala (protein, UniProt P0DXF5 25-250)
chain: GPAEKWKPTPAPTGTVAAAVTDTQVSKDNKFDDTKTLNNAGANGSLSNSKGNLGANIAAGSGNQQDNAAAITSSAGDAATVFAVADIYQESKDNKFTNKGTQNNALLNNSANNSSGNVGVNVAAGQGNQQKNNLAIVTADGKNVAAASNTEQVSLDNHFLNEASSKHSYKPQYVVNNAGLLNSANNASGNIGVAVAAGAGNQQSNTLTLGSGCTVCAAGTGSKLAF
For B1, the binding result in assay [1] is listed as “no binding (tested: 15 µM, 120 h)”.

B2: FapC UK4 Gly84Pro (protein, UniProt P0DXF5 25-250)
chain: GPAEKWKPTPAPTGTVAAAVTDTQVSKDNKFDDTKTLNNAGANGSLSNSKGNLGANIAAPSGNQQDNAAAITSSAGDAATVFAVADIYQESKDNKFTNKGTQNNALLNNSANNSSGNVGVNVAAGQGNQQKNNLAIVTADGKNVAAASNTEQVSLDNHFLNEASSKHSYKPQYVVNNAGLLNSANNASGNIGVNVAAGAGNQQSNTLTLGSGCTVCAAGTGSKLAF
Consider B2, for which the binding entry in assay [2] is reported as “no binding (tested: 15 µM, 120 h)”.

B3: FapC UK4 Asn62Ala (protein, UniProt P0DXF5 25-250)
chain: GPAEKWKPTPAPTGTVAAAVTDTQVSKDNKFDDTKTLANAGANGSLSNSKGNLGANIAAGSGNQQDNAAAITSSAGDAATVFAVADIYQESKDNKFTNKGTQNNALLNNSANNSSGNVGVNVAAGQGNQQKNNLAIVTADGKNVAAASNTEQVSLDNHFLNEASSKHSYKPQYVVNNAGLLNSANNASGNIGVNVAAGAGNQQSNTLTLGSGCTVCAAGTGSKLAF
Regarding B3, the binding result in assay [3] is given as “no binding (tested: 15 µM, 120 h)”.
